The values below come from the supplement of paper PMC9015667.

Structures can show the parent of a compound that is named as a salt. This is one part of the list. Repeats are few or missing, and single values can be far off. Bounds are passed on as bounds.

This assay relates to UACC62R (matched melanoma line resistant to BRAF inhibitors). The experiment in a line: reduction in cell viability relative to untreated/vehicle; higher = more growth inhibition. Conditions: 200 nM; 72 h.
Turning to `C[C@H](NC(=O)c1sccc1OCc1ccc(Cl)cc1)c1ccccc1`, the “reduction in cell viability” value was below 0%.

For the molecule `CN(C)CCN1C(=O)c2cccc3cc(N)cc(c23)C1=O` [Amonafide], the “reduction in cell viability” value is below 0%.

With `CCCn1c(=O)c2nc(C34CC5CC(CC3C5)C4)[nH]c2n(CCC)c1=O` [Rolofylline], the “reduction in cell viability” value is below 0%.

For `CNC(C)C1CCC(N)C(OC2C(N)CC(N)C(OC3OCC(C)(O)C(NC)C3O)C2O)O1` (stereo not given) [Gentamycin sulfate], the “reduction in cell viability” value was below 0%.

As to `CCCCCCNC(=O)n1cc(F)c(=O)[nH]c1=O` [Carmofur], the “reduction in cell viability” value was below 0%.
